{"source": "PubChem BioAssay AID1347076", "about": "(National Center for Advancing Translational Sciences (NCATS), 2019)", "note": "The campaign covered roughly 400,000 compounds. About 13,000 (3.2%) were called active. Inconclusive means that the source gave no clear call. Such entries were picked first, then a sample of the others. Calls follow the shape of the dose curve; as a rule, active = well fitted cell-killing curve with a large enough effect; inconclusive = small, poorly fitted or top-dose-only effect, or effect the other way; inactive = flat fitted curve, though single readings scatter. Potencies beside an inconclusive call are fits to weak or partial responses and may not hold up. % is scaled to controls: 0 for no effect and ±100 for the full control effect; potency is read from the fitted curve at half-maximal effect."}
{"assay": "qHTS assay for MDR1-selective chemotherapeutics: Primary screen using the drug-selected MDR subline cells KB-V1; also: nearly all actives have a fitted effect of over 60% in size", "conditions": "KB-V1 MDR cells viability, CellTiter-Glo, 72 h; activity change, negative = cytotoxicity: at 46.1 µM (top of the series)", "summary_of_the_method": "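Following 72 h at 37 degrees C with compound, KB-V1 cell viability was read by CellTiter-Glo luminescence, medium being phenol-red-free DMEM plus 10% FBS; concentration-response parameters came from normalized, curve-fitted qHTS data.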"}
{"smiles": "COc1ccc(NC(=O)CC(C)n2ccnc2)cc1", "note": "(stereo unspecified)", "Potency": "inconclusive: 23.1 µM [rising, partial curve, poor fit]"}
{"smiles": "CC(Oc1ccc(Cl)cc1)C(=O)N1CCN(C(=O)c2ccco2)CC1", "note": "(stereo unspecified)", "Potency": "active: 20.6 µM"}
{"smiles": "COc1ccc(-c2nc(CSCC(=O)NCCC3=CCCCC3)c(C)o2)cc1OC", "Potency": "active: 20.6 µM"}
{"smiles": "O=C(Cc1cccs1)N/N=C/c1ccccc1", "Potency": "inconclusive: 0.0259 µM [cytotoxic, full curve, poor fit]"}
{"smiles": "Cn1c(-c2ccco2)nc2cc3ccccc3cc21", "Potency": "active: 8.2 µM"}
{"smiles": "COc1cccc(S(=O)(=O)NCC(=O)N2CCCC2)c1", "Potency": "inconclusive: 23.1 µM [rising, single point]"}
{"smiles": "Cn1c(=O)c2nc(-c3ccccc3)c(-c3ccccc3)nc2n(C)c1=O", "activity change, negative = cytotoxicity": "inactive: -18.7%"}
{"smiles": "C(=Cc1cnc2ccccc2n1)c1ccc2c(c1)OCO2", "Potency": "active: 14.6 µM"}
{"smiles": "COc1cc(C(=O)N2CCNC(=O)C2CC(=O)Nc2ccc(C)c(C)c2)cc(OC)c1OC", "note": "(stereo unspecified)", "Potency": "inconclusive: 16.4 µM [rising, partial curve]"}
{"smiles": "Cc1cccc(OCc2nnc(SCC(=O)NC3CCCCC3)n2C)c1", "activity change, negative = cytotoxicity": "inactive: -4.19%"}
{"smiles": "CN1CCN(C(=O)CN2C(=O)COc3ccc(S(=O)(=O)N4CCOCC4)cc32)CC1", "Potency": "inconclusive: 29.1 µM [rising, single point]"}
{"smiles": "CC1=C/C(=C(\\c2ccc(O)c(C)c2)c2ccccc2S(=O)(=O)O)C=CC1=O", "Potency": "inconclusive: 20.6 µM [rising, partial curve]"}
{"smiles": "CC(=O)c1c(N2CCN(C)CC2)nc(=S)n(Cc2ccccc2)c1C", "activity change, negative = cytotoxicity": "inactive: -18.3%"}
{"smiles": "O=C(NCCCN1CCCC1=O)c1ccc2c(c1)ncn2C1CCCCC1", "Potency": "inconclusive: 16.4 µM [rising, single point]"}
{"smiles": "O=C(Cc1ccc(-c2ccccc2)cc1)NCc1cccnc1", "Potency": "inconclusive: 6.51 µM [cytotoxic, full curve]"}
{"smiles": "O=C(COc1cccc(Oc2ccccc2)c1)Nc1ccc(SC(F)F)cc1", "activity change, negative = cytotoxicity": "inactive: 0%"}
{"smiles": "Cc1ccc(Cn2c(C3CCCN3c3nc(C)cs3)nc3cc(C(F)(F)F)ccc32)cc1", "note": "(stereo unspecified)", "Potency": "inconclusive: 29.1 µM [cytotoxic, single point]"}
{"smiles": "Cc1ccccc1NC(=O)c1ccc(NS(=O)(=O)c2cc(C(C)(C)C)cc(C)c2C)cc1", "Potency": "inconclusive: 29.1 µM [cytotoxic, single point]"}
{"smiles": "CN(C)c1oc(-c2ccccc2Cl)nc1S(=O)(=O)c1ccccc1", "activity change, negative = cytotoxicity": "inactive: 3.04%"}
{"smiles": "CCCCNc1nc2c(-c3cccc(C)c3)nnn2c2ccccc12", "activity change, negative = cytotoxicity": "inactive: -3.34%"}
{"smiles": "NS(=O)(=O)c1ccc(CNC(=O)c2cc(-c3ccccc3)nc3ccccc23)cc1", "Potency": "inconclusive: 16.4 µM [rising, single point]"}
{"smiles": "COc1cccc(CNC(=O)CCC2CCCN(C(=O)c3ccc(C)nc3)C2)c1", "note": "(stereo unspecified)", "activity change, negative = cytotoxicity": "inconclusive: 23.8%"}
{"smiles": "Cc1cc(C)c(S(=O)(=O)NCc2ccccn2)cc1C", "activity change, negative = cytotoxicity": "inconclusive: 13.8%"}
{"smiles": "COc1ccc(OC)c(/C=N/NC(=O)CSc2cc(C)nc3c(OC)cccc23)c1", "Potency": "inconclusive: 29.1 µM [rising, single point]"}
{"smiles": "O=C(NC(Cc1ccc2c(c1)OCO2)C(=O)NC(Cc1ccccc1)C(=O)O)c1ccccc1", "note": "(stereo unspecified)", "Potency": "inconclusive: 7.31 µM [rising, partial curve, poor fit]"}
{"smiles": "C(=N\\Nc1ccc2ccccc2n1)/c1ccc2c(c1)OCCO2", "Potency": "active: 18.4 µM"}
{"smiles": "CCn1nc(C(=O)Nc2cc(Cl)ccc2-n2cncn2)c2ccccc2c1=O", "Potency": "inconclusive: 29.1 µM [cytotoxic, partial curve, poor fit]"}
{"smiles": "Cc1ccc2nc(N3CCN(C(=O)c4cccs4)CC3)c(C#N)cc2c1", "Potency": "inconclusive: 32.6 µM [cytotoxic, single point]"}
{"smiles": "CC1(C)CC(O)(CCNCc2ccc3c(c2)OCO3)CCO1", "note": "(stereo unspecified)", "activity change, negative = cytotoxicity": "inactive: 18.8%"}
{"smiles": "CCc1ccc(NS(=O)(=O)c2ccc3[nH]cc(C(=O)N4CCc5ccccc54)c(=O)c3c2)cc1", "Potency": "inconclusive: 11.6 µM [rising, partial curve]"}
{"smiles": "CCN1C(=O)[C@H]2[C@@H](c3ccc(C)cc3)N3C(=O)N(c4ccccc4)C(=O)[C@@]3(C)[C@H]2C1=O", "Potency": "inconclusive: 25.9 µM [rising, single point]"}
{"smiles": "CCCCOc1c(Br)cc(CNCCCN2CCOCC2)cc1OC", "Potency": "inconclusive: 11.6 µM [cytotoxic, partial curve, poor fit]"}
{"smiles": "Clc1ccc(CSc2ccc(-c3ccccn3)nn2)cc1", "Potency": "inconclusive: 4.11 µM [cytotoxic, full curve, poor fit]"}
{"smiles": "Cc1ccc(S(=O)(=O)Nc2cc3c(C(=O)OCc4ccccc4)c(C)oc3c3ccccc23)c(C)c1", "activity change, negative = cytotoxicity": "inactive: 17.1%"}
{"smiles": "CC(C)CCNC(=O)COc1ccc2c(c1)C(=O)CC(C)(C)O2", "Potency": "inconclusive: 20.6 µM [cytotoxic, partial curve]"}
{"smiles": "CCCC(=O)Nc1ccccc1NC(=O)c1ccc(OC(C)=O)cc1", "activity change, negative = cytotoxicity": "inactive: -5.43%"}
{"smiles": "CCCN(CCC)C(=O)Cn1c(=O)n(CCCCCC(=O)Nc2ccccc2)c(=O)c2sccc21", "activity change, negative = cytotoxicity": "inactive: 7.49%"}
{"smiles": "COc1ccc(S(=O)(=O)Cc2ccccc2)cc1N", "Potency": "inconclusive: 29.1 µM [cytotoxic, single point]"}
{"smiles": "CNC(=S)N/N=C/c1ccc(N2CCOCC2)s1", "Potency": "inconclusive: 20.6 µM [cytotoxic, partial curve, poor fit]"}
{"smiles": "COc1cc(OC)cc(C(=O)Nc2ccc3nc4c(c(Nc5ccc(OC)c(OC)c5)c3c2)CCCC4)c1", "activity change, negative = cytotoxicity": "inactive: 4.79%"}
{"smiles": "O=C(Nc1ccsc1C(=O)NC1CCCCC1)c1ccccc1", "Potency": "active: 4.61 µM"}
{"smiles": "Cc1ccc(NC(=O)C(C)NS(=O)(=O)c2ccc(F)cc2)cc1C", "note": "(stereo unspecified)", "activity change, negative = cytotoxicity": "inactive: 11.3%"}
{"smiles": "Cc1ccc(S(=O)(=O)N2CCCCC2)cc1C(=O)NCc1ccncc1", "Potency": "inconclusive: 29.1 µM [cytotoxic, single point]"}
{"smiles": "CCN(C(=O)CCS(=O)(=O)c1ccc2c(c1)CCN2C(C)=O)c1cccc(C(F)(F)F)c1", "Potency": "inconclusive: 20.6 µM [cytotoxic, single point]"}
{"smiles": "Cc1ccc(C(=O)CSc2ncnc3sc4c(c23)CCCC4)cc1", "Potency": "inconclusive: 14.6 µM [cytotoxic, single point]"}
{"smiles": "O=C(CCl)NC1(C(=O)O)CCCC1", "activity change, negative = cytotoxicity": "inactive: 5.67%"}
